No constants are given. Whether binding was seen depends on the method and setting. Some entries that bind do so weakly or less than the wild type. Values belong to the binder of their own block, whether it stands above or below them.
How the values were obtained:
Streptavidin [1] = molecular target: Streptavidin (UniProt P22629); assay: selected and sequenced clones, OmpX loop 2 display
Streptavidin [2] = molecular target: Streptavidin (UniProt P22629); assay: selected and sequenced clones
Streptavidin [3] = molecular target: Streptavidin (UniProt P22629); assay: clones isolated by MACS and FACS
Streptavidin [4] = molecular target: Streptavidin (UniProt P22629); assay: flow cytometry

binding (Streptavidin [1]): binds
Binder: WCCHPQVCSLSLAYKCQ [SEQ ID NO 268]

binding (Streptavidin [2]): binds
Binder: YWVCMNVCMYYTARQ [SEQ ID NO 238]

binding (Streptavidin [1]): binds
Binder: TRLICANLCWYAE [SEQ ID NO 284]

binding (Streptavidin [3]): binds
Binder: YWVCMNVCMYYTARQ [SA-5]

binding (Streptavidin [1]): binds
Binder: QSLVCQNVCWMRE [SEQ ID NO 276]

binding (Streptavidin [2]): binds
Binder: VTSLCMNVCYSLTTY [SEQ ID NO 240]

binding (Streptavidin [4]): binds
Binder: RLEICQNVCYYLGTL [SEQ ID NO 232]

binding (Streptavidin [3]): binds
Binder: ADTICWYVCTISVHA [SA-11]

binding (Streptavidin [2]): binds
Binder: NEWYCQNVCERMPHS [SEQ ID NO 241]

binding (Streptavidin [1]): binds
Binder: CMIICQNVCYRKC [SEQ ID NO 277]

binding (Streptavidin [3]): binds
Binder: NEWYCQNVCERMPHS [SA-7]

binding (Streptavidin [2]): binds
Binder: TWVQCTMVCYGMSTT [SEQ ID NO 242]

binding (Streptavidin [1]): binds
Binder: SKWICQNVCYPGL [SEQ ID NO 279]

binding (Streptavidin [1]): binds
Binder: GTLVCMNFCYLSK [SEQ ID NO 280]

binding (Streptavidin [2]): binds
Binder: QVKLHPMAPVVPSHW [SEQ ID NO 243]

binding (Streptavidin [1]): binds
Binder: ICCHPQVCAWNRVFLCK [SEQ ID NO 269]

binding (Streptavidin [1]): binds
Binder: WCCHPQVCHRAMVRNCI [SEQ ID NO 271]

binding (Streptavidin [2]): binds
Binder: IMMECFYVCTIANTQ [SEQ ID NO 245]

binding (Streptavidin [3]): binds
Binder: LPVWCVMHVCLTSSR [SA-6]

binding (Streptavidin [3]): binds
Binder: SITICWYTCMVQKTA [SA-10]

binding (Streptavidin [2]): binds
Binder: LPVWCVMHVCLTSSR [SEQ ID NO 239]

binding (Streptavidin [2]): binds
Binder: RLEICQNVCYYLGTL [SEQ ID NO 235]

binding (Streptavidin [1]): binds
Binder: ACCHPQVCVMALPYHCL [SEQ ID NO 272]

binding (Streptavidin [3]): binds
Binder: IMMECFYVCTIANTQ [SA-8]

binding (Streptavidin [1]): binds
Binder: LCCHPQVCASAGYYACY [SEQ ID NO 273]

binding (Streptavidin [1]): binds
Binder: ICCHPQVCSGLNRFRCG [SEQ ID NO 270]

binding (Streptavidin [1]): binds
Binder: LCCHPQNCVSFRHVECR [SEQ ID NO 274]

binding (Streptavidin [1]): binds
Binder: YCCHPQVCFLGHRAACP [SEQ ID NO 267]

binding (Streptavidin [1]): binds
Binder: PTLICMNVCFYDQ [SEQ ID NO 281]

binding (Streptavidin [1]): binds
Binder: KALVCQNVCYTMS [SEQ ID NO 278]

binding (Streptavidin [1]): binds
Binder: TYSWCANVCMHYS [SEQ ID NO 283]

binding (Streptavidin [2]): binds
Binder: TVLICMNICWTGETQ [SEQ ID NO 236]

binding (Streptavidin [1]): binds
Binder: SHWFCVNVCFRIQ [SEQ ID NO 282]

binding (Streptavidin [4]): binds
Binder: TVLICMNICWTGETQ [SEQ ID NO 233]

binding (Streptavidin [2]): binds
Binder: ICSYVMYTTCFLRVY [SEQ ID NO 237]

binding (Streptavidin [3]): binds
Binder: TWVQCTMVCYGMSTT [SA-9]

binding (Streptavidin [1]): binds
Binder: ICCHPQWCGLTVWWPCK [SEQ ID NO 275]

binding (Streptavidin [4]): binds
Binder: ICSYVMYTTCFLRVY [SEQ ID NO 234]

binding (Streptavidin [3]): binds
Binder: VTSLCMNVCYSLTTY [SA-4]

binding (Streptavidin [2]): binds
Binder: ADTICWYVCTISVHA [SEQ ID NO 244]

Source: patent US20070099247A1
